The supplement of paper PMC12067093, “Discovery and optimisation of a covalent ligand for TRIM25 and its application to targeted protein ubiquitination” (Chemical Science, 2025)
The other results are listed elsewhere or left out.

Protein sequences, listed by entry. Tags and fused reporters are not part of them. Lines headed by an entry give the natural chain unless they say otherwise; changes in a name come on top.
UniProt Q9UNM6: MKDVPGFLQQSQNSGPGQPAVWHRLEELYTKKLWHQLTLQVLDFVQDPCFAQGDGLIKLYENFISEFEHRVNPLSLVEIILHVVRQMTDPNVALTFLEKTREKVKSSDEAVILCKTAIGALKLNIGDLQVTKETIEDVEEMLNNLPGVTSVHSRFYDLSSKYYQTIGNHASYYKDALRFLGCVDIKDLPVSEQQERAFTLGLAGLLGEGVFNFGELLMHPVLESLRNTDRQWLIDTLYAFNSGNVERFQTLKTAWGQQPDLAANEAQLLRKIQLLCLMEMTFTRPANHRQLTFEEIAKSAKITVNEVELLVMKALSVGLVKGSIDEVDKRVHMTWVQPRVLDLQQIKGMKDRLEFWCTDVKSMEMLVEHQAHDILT
UniProt Q06323: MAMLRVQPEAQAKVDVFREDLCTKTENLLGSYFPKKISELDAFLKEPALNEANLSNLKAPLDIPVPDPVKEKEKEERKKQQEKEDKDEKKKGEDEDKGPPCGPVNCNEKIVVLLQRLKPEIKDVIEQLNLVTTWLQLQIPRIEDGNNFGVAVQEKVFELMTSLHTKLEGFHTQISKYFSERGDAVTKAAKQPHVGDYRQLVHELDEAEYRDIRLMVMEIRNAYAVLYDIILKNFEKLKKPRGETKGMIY
UniProt Q8NDX1: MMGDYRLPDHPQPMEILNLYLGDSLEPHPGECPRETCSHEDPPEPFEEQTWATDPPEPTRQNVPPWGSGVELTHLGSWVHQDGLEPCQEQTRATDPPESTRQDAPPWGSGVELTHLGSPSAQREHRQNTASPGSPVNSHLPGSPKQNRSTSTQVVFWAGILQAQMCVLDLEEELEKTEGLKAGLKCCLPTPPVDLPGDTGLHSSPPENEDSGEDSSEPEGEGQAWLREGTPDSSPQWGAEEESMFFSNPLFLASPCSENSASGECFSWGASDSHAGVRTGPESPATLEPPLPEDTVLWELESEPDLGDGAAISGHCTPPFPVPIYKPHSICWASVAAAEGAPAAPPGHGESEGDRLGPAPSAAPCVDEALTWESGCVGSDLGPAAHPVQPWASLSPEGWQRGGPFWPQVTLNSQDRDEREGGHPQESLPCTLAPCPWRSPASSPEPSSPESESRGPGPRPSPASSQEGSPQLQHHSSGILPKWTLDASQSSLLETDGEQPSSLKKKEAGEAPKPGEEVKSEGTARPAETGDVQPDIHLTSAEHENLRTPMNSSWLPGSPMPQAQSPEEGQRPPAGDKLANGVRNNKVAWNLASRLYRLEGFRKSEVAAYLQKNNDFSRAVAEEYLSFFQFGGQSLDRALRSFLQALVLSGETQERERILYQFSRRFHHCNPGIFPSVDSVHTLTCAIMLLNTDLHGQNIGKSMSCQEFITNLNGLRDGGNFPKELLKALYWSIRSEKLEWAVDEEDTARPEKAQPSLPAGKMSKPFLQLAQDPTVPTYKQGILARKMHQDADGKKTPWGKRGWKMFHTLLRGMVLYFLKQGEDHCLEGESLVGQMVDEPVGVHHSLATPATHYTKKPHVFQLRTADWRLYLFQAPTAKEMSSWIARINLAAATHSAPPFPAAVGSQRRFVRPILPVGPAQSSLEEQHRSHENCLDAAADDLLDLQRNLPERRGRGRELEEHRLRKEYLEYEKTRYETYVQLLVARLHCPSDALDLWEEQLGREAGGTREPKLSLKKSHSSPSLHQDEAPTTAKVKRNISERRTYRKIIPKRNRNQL
UniProt P53801: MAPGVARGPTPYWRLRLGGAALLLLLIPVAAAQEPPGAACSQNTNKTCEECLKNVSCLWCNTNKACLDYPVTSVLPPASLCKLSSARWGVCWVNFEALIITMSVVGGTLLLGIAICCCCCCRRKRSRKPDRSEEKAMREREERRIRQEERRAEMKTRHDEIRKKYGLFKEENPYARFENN
UniProt P62333, whole entry, looked up: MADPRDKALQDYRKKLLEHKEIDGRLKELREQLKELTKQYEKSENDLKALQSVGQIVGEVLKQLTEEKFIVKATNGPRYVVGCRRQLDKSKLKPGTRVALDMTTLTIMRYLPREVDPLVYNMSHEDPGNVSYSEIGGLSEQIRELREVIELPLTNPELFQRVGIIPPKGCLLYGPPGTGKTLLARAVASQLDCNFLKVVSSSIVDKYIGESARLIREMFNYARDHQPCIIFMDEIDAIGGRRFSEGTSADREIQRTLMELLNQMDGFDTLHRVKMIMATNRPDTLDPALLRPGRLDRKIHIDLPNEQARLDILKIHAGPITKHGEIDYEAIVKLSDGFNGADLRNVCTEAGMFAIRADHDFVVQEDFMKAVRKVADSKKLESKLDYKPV
UniProt P17980, whole entry, looked up: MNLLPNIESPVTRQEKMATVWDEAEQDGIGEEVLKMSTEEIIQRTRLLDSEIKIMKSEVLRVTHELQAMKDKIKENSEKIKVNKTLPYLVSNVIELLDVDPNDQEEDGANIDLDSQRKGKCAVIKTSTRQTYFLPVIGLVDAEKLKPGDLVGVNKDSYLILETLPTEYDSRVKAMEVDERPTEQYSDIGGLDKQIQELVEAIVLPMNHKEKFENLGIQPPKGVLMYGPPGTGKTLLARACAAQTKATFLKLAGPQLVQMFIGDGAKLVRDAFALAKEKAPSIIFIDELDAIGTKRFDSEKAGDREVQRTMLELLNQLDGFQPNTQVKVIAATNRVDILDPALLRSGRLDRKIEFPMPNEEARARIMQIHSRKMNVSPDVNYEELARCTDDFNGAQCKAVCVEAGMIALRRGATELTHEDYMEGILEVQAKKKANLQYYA

Compound: CC1Cc2ccccc2N1C(=O)C1CCCN(C1)C(=O)CCl (mixture of isomers) [TRIM25 ligand 11 (diastereomer mixture)]
Assay: probe-labelled cysteine peptide fold change vs DMSO (competition) (log2 fold change); higher = less target engagement (more negative = stronger competition)
Conditions: THP-1, incubation time: 4 h
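Also: competitive chemoproteomic profiling in live THP-1 cells with an iodoacetamide desthiobiotin (IA-DTB) probe, comparing probe-labelled peptide intensities in compound-treated cells against DMSO-treated controls.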

Target | probe-labelled cysteine peptide fold change (10 µM) | probe-labelled cysteine peptide fold change (50 µM)
PSMD13_Q9UNM6_182_FLGCVDIK (UniProt Q9UNM6) | -0.0427 | -0.0771
PSME1_Q06323_101_KKGEDEDKGPPCGPVNCNEK (UniProt Q06323) | -0.56 | -0.596
PSD4_Q8NDX1_988_LHCPSDALDLWEEQLGR (UniProt Q8NDX1) | 0.188 | 0.0373
PTTG1IP_P53801_81_ACLDYPVTSVLPPASLCK (UniProt P53801) | -0.074 | -0.198
PSMC6_P62333_228_DHQPCIIFMDEIDAIGGRR (UniProt P62333) | -0.233 | -0.0784
PSMB9_P28065_171_QPFAIGGSGSTFIYGYVDAAYKPGMSPEECRR (UniProt P28065) | 0.104 | 0.0454
PSMC3_P17980_387_CTDDFNGAQCK (UniProt P17980) | 0.0274 | 0.067
